Experimental data taken from the supplement of paper PMC10849652.
This is one part of the list.

By UniProt entry, the sequences of proteins in these tests, tags left out. Where a name states a change or a piece, a line headed by the entry shows the natural chain unless it says otherwise.
UniProt Q13445: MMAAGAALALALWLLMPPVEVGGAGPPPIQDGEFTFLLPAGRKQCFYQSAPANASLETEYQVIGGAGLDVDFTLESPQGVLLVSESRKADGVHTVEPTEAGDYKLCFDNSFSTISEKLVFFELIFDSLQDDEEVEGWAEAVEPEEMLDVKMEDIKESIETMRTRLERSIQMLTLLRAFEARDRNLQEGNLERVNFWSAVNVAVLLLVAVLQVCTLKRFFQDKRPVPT
UniProt Q9BVK8: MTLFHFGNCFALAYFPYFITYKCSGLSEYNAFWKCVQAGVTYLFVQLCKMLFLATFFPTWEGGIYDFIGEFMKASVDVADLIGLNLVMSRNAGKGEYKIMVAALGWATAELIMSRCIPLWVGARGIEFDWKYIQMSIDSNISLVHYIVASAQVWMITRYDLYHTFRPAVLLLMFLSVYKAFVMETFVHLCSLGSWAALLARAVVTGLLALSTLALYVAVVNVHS
UniProt Q0P6H9: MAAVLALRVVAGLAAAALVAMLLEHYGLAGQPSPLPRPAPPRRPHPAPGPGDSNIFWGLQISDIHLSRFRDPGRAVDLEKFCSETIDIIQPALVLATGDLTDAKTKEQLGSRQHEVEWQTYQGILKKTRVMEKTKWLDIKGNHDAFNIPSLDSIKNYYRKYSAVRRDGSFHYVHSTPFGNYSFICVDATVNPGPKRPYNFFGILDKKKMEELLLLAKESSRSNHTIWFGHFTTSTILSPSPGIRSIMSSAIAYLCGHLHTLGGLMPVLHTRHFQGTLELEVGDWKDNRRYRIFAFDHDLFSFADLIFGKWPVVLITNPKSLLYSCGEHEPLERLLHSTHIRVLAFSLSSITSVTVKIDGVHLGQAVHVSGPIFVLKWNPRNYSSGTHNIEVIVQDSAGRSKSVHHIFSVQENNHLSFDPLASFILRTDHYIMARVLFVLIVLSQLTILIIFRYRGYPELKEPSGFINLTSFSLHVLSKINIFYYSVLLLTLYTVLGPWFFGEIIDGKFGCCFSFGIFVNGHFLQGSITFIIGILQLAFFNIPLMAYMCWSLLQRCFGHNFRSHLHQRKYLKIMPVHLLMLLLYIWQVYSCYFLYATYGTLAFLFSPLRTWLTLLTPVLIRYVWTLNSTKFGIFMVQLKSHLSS
UniProt Q8TBQ9: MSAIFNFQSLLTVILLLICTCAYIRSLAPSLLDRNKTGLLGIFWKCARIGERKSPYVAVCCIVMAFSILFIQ
UniProt Q9Y320, whole entry, looked up: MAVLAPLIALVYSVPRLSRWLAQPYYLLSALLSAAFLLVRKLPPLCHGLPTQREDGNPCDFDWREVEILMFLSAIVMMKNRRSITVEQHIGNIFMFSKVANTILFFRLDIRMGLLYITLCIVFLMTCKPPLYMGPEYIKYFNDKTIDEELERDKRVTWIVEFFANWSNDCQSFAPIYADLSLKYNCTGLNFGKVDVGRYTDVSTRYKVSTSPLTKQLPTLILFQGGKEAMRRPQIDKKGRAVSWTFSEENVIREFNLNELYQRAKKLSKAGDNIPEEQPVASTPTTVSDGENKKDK
UniProt Q9Y3A6: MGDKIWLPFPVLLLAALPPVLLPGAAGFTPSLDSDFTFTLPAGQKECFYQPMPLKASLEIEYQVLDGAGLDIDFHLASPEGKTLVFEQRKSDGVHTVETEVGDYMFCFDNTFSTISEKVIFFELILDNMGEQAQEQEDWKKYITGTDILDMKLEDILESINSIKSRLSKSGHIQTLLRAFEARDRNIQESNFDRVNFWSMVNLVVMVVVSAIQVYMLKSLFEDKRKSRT
UniProt Q9BVC6: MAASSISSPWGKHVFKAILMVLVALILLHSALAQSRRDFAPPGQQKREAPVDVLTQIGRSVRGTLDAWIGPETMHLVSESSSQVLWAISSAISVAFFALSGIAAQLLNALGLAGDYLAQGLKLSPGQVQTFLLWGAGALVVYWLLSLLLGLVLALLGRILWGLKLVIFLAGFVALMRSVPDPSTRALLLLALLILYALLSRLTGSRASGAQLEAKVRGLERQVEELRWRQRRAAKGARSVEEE
UniProt Q96HV5: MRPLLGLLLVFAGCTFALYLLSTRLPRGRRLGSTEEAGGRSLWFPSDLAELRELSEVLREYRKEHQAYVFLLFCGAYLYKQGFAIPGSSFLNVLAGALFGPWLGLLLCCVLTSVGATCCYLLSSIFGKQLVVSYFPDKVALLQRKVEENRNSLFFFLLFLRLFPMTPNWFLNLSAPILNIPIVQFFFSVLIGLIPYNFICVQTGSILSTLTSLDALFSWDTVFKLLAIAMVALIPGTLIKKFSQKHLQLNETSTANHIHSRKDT
UniProt Q5BJH2: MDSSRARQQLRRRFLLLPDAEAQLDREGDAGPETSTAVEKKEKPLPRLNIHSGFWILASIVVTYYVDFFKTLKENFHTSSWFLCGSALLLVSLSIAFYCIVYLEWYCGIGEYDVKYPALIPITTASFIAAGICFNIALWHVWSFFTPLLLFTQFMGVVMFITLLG
UniProt Q92544: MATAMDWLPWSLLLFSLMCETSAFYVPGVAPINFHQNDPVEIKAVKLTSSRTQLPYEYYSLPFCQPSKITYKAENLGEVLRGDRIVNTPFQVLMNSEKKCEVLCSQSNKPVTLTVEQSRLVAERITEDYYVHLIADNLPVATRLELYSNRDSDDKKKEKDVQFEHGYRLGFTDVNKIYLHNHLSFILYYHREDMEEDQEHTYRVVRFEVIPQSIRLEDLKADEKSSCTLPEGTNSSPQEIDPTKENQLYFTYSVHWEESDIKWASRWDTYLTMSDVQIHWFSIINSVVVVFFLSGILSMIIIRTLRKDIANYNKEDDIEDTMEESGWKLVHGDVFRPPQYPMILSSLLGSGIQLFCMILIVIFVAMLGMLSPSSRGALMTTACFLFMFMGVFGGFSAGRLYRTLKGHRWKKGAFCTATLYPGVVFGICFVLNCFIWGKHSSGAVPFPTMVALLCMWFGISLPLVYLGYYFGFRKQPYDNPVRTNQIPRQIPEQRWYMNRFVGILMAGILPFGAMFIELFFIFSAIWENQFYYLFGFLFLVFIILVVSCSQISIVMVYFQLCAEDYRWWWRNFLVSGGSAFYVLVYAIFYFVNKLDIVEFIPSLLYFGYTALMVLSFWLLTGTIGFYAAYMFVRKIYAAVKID
UniProt Q9NR96: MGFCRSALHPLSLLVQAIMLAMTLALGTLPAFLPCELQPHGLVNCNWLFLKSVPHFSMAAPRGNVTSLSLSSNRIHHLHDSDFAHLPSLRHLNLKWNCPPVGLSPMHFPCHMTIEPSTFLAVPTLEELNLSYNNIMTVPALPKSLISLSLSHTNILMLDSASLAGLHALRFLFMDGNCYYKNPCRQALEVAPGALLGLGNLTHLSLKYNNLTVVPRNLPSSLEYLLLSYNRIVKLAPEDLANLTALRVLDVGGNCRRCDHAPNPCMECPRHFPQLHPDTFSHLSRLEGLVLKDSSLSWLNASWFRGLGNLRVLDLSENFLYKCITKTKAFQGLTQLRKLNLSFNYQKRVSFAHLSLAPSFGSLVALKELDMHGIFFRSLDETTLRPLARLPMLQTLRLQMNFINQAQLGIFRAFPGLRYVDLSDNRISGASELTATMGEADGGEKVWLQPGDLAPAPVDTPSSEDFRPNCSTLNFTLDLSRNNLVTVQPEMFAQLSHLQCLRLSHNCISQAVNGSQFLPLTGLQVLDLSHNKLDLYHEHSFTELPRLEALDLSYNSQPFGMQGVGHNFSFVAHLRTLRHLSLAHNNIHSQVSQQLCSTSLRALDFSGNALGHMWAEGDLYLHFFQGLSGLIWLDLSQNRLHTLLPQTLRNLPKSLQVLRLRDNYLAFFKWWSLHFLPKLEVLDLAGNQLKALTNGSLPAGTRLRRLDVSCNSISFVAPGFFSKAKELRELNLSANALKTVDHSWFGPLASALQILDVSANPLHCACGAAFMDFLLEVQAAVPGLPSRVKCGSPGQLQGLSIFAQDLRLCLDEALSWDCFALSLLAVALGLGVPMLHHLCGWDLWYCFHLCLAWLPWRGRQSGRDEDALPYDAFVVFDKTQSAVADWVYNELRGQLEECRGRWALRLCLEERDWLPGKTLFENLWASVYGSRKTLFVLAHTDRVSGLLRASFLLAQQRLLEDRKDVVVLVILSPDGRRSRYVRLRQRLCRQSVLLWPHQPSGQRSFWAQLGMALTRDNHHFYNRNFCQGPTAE
UniProt Q9H1E5: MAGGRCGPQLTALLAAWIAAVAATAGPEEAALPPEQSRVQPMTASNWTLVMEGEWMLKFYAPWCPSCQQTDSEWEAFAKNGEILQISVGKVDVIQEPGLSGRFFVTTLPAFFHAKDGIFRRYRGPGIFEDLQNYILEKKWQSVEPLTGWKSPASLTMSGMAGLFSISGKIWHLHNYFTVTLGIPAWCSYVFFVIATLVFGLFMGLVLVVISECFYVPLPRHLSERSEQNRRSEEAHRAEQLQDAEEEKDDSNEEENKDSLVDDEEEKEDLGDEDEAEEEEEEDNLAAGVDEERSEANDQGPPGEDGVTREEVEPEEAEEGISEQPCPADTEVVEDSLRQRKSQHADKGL
UniProt P17152: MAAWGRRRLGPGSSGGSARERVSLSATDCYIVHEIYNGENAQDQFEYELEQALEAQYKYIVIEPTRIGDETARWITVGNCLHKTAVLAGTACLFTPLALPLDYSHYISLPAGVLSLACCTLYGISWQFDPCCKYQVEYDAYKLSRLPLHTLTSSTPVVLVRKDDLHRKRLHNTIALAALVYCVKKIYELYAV
UniProt Q9HC07: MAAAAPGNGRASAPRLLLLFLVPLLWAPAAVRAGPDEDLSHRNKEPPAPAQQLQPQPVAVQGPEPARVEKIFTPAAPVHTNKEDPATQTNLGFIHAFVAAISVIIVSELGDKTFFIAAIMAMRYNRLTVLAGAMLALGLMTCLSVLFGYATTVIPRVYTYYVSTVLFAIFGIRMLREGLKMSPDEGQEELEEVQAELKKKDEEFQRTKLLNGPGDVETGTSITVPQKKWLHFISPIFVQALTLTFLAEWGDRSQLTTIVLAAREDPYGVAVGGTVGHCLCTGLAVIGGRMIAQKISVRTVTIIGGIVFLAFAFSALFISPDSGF
UniProt Q5BJD5: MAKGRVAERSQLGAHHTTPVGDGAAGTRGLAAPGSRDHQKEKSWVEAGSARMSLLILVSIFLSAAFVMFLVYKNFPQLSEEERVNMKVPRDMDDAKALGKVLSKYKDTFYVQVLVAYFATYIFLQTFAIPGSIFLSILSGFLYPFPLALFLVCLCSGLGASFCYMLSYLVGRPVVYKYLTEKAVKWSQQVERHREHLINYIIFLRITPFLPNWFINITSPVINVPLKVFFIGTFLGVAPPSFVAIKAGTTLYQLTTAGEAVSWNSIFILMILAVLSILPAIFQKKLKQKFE
UniProt Q5BJF2, whole entry, looked up: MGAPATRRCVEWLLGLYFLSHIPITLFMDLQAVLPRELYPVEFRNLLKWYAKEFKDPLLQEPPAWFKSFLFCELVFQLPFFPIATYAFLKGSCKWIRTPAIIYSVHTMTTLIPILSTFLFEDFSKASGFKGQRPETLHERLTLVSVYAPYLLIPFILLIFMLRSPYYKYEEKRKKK
UniProt Q8N511: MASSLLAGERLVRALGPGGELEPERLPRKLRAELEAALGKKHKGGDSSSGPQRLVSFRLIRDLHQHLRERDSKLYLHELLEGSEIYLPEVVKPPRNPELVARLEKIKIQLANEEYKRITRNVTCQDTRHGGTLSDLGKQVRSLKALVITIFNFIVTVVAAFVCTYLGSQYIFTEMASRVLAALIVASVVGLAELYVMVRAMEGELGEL
UniProt P49755: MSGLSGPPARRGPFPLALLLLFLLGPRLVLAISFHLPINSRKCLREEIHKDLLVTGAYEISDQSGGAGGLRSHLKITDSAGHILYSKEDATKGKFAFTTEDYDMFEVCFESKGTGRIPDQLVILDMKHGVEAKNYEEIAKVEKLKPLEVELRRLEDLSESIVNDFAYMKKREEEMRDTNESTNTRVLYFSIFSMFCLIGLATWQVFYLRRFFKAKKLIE
UniProt P57088: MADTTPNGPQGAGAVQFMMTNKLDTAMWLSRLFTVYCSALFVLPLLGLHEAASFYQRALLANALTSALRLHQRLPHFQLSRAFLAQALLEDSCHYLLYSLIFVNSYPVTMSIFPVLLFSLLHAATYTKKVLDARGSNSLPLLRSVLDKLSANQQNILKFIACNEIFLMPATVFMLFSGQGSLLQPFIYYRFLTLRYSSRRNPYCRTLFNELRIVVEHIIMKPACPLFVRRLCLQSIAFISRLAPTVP
UniProt O00220, whole entry, looked up: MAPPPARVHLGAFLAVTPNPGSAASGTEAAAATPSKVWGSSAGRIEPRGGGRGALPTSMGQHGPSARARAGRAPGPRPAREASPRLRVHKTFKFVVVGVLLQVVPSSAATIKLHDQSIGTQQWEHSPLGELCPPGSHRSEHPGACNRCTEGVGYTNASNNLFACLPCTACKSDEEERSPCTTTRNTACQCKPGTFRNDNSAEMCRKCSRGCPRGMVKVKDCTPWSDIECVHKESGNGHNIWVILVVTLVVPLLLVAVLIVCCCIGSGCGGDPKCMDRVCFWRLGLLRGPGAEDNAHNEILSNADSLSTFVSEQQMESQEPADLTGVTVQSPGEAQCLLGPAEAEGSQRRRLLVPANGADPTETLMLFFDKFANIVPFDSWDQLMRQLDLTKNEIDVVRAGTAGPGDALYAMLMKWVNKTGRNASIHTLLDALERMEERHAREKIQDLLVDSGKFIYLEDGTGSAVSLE

Legend:
Experiment in all cases: log2 fold change, soluble protein after heating vs DMSO (PISA); higher = thermal stabilisation; K562 cells, 10 uM, 30 min; active = over 0.2 and 3.5 SD of the protein, either way, in both replicates (recomputed)
[1] = compound: C#Cc1cccc(Nc2ncnc3cc(OCCOC)c(OCCOC)cc23)c1 [erlotinib]
Procedure, shortened: (§1)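 K562 cells at 2×10^6 cells/mL were treated with 10 μM compound for 30 min. Aliquots were heated for 3 min across 48°C-58°C, pooled, and extracted in PBS with 0.5% NP-40 at 4°C; soluble protein was the supernatant after 21,000xg for 90 min. Soluble protein was quantified by TMTpro 16plex LC-MS/MS with channel sums equalised, and reported as log2 fold change in thermal stability against DMSO controls, with values from duplicates.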

[2] = compound: C/C(=N\NC(=O)C1=CC(=CC=C1)S(=O)(=O)N2CCOCC2)/C3=C(C=CC(=C3)Cl)O
Procedure, shortened: as §1

[3] = compound: C1=CC(=C(C=C1Cl)C2=NC3=NC=CN=C3C(=N2)NC4=CC=NC=C4)F
Procedure, shortened: as §1

[4] = compound: C1=CC(=CC=C1C2=NC3=C(N2)C=C(C=C3)C(=O)N)OC4=CC=C(C=C4)Cl
Procedure, shortened: as §1

[5] = compound: C1=CC2=C(C=CC(=C2)/C=C\3/C(=O)NC(=NCC4=CC=CS4)S3)N=C1
Procedure, shortened: as §1

[6] = compound: C1=CC2=NC=CN=C2C=C1/C=C/3\C(=O)NC(=O)S3
Procedure, shortened: as §1

[7] = compound: C1=CC=C(C=C1)C2=NC(=C(N2)C3=CC=NC=C3)C4=CC(=C(C=C4)Cl)O
Procedure, shortened: as §1

[8] = compound: C1=CC=C2C(=C1)C3=NNC4=CC=CC(=C43)C2=O
Procedure, shortened: as §1

[9] = compound: C1CCN(C1)C(=O)NC2=CC=CC(=C2)NC3=NC=C(C(=N3)NCCC4=CN=CN4)Br
Procedure, shortened: as §1

[10] = compound: C1CN(CCC1(CC2=CC=C(C=C2)Cl)N)C3=NC=NC4=C3C=CN4
Procedure, shortened: as §1

Measured: log2 fold change

TMED1 (UniProt Q13445)
inactive: [1] -0.007 | [2] 0.083 | [3] 0.095 | [4] -0.008 | [5] -0.028 | [6] 0.048 | [7] -0.109 | [8] 0.005 | [9] -0.019 | [10] 0.016

TMEM147 (UniProt Q9BVK8)
inactive: [1] 0.069 | [2] -0.053 | [3] -0.031 | [4] -0.115 | [5] 0.044 | [6] 0.115 | [7] -0.07 | [8] 0.008 | [9] -0.039 | [10] 0.157

TMA16 (UniProt Q96EY4)
inactive: [1] -0.06 | [2] -0.118 | [3] -0.43 | [4] 0.047 | [5] -0.039 | [6] -0.084 | [7] -0.024 | [8] 0.001 | [9] 0.043 | [10] -0.069

TMEM62 (UniProt Q0P6H9)
inactive: [1] 0.018 | [2] 0.07 | [3] 0.033 | [4] 0.1 | [5] 0.077 | [6] -0.036 | [7] 0.066 | [8] -0.03 | [9] 0.029 | [10] 0.02

TMEM186 (UniProt Q96B77)
inactive: [1] -0.035 | [2] 0.003 | [3] -0.025 | [4] 0.015 | [5] 0.004 | [6] 0.08 | [7] 0.018 | [8] 0.03 | [9] 0.025 | [10] 0.058

TMEM167A (UniProt Q8TBQ9)
inactive: [1] -0.054 | [2] -0.001 | [3] 0.037 | [4] -0.076 | [5] 0.051 | [6] -0.094 | [7] 0.051 | [8] 0.021 | [9] 0.002 | [10] 0.058

TMX2 (UniProt Q9Y320)
inactive: [1] 0.047 | [2] 0.001 | [3] 0.03 | [4] -0.003 | [5] 0.048 | [6] 0.016 | [7] 0.041 | [8] -0.012 | [9] -0.032 | [10] -0.028

TMEM268 isoform 3 (UniProt Q5VZI3)
inactive: [1] -0.161 | [2] 0.061 | [3] -0.166 | [4] 0.054 | [5] 0.024 | [6] -0.138 | [7] 0.118 | [8] -0.21 | [9] 0.13 | [10] 0.045

TLK2 isoform 2 (UniProt Q86UE8)
inactive: [1] 0 | [2] 0.008 | [3] 0.04 | [4] 0.074 | [5] -0.041 | [6] -0.016 | [7] 0.064 | [8] 0 | [9] 0.017 | [10] -0.048

TMED5 (UniProt Q9Y3A6)
inactive: [1] -0.001 | [2] -0.034 | [3] -0.029 | [4] -0.001 | [5] 0.023 | [6] 0.047 | [7] -0.004 | [8] 0.022 | [9] 0.026 | [10] -0.023

TMEM109 (UniProt Q9BVC6)
inactive: [1] 0.026 | [2] -0.044 | [3] 0.033 | [4] 0.011 | [5] 0.027 | [6] 0.038 | [7] -0.042 | [8] 0.011 | [9] 0 | [10] 0.006

TMEM41A (UniProt Q96HV5)
inactive: [1] 0.013 | [2] 0.046 | [3] -0.02 | [4] -0.014 | [5] 0.024 | [6] 0.037 | [7] -0.04 | [8] 0.013 | [9] -0.069 | [10] 0.033

TMEM128 (UniProt Q5BJH2)
inactive: [1] -0.048 | [2] 0 | [3] 0.06 | [4] 0.034 | [5] -0.437 | [6] 0.067 | [7] -0.081 | [8] -0.238 | [9] -0.182 | [10] 0.084

TM9SF4 (UniProt Q92544)
inactive: [1] -0.015 | [2] 0.011 | [3] -0.006 | [4] 0.052 | [5] -0.054 | [6] -0.002 | [7] 0.008 | [8] 0.038 | [9] -0.012 | [10] 0.066

TLR9 isoform 4 (UniProt Q9NR96)
inactive: [1] 0.017 | [2] -0.065 | [3] 0.088 | [4] 0.072 | [5] 0.003 | [6] 0.056 | [7] 0.009 | [8] -0.057 | [9] 0.053 | [10] -0.138

2 neighbouring entries from above, for reference:
TMEM41A (UniProt Q96HV5)
inactive: [1] 0.013 | [2] 0.046 | [3] -0.02 | [4] -0.014 | [5] 0.024 | [6] 0.037 | [7] -0.04 | [8] 0.013 | [9] -0.069 | [10] 0.033

TMEM128 (UniProt Q5BJH2)
inactive: [1] -0.048 | [2] 0 | [3] 0.06 | [4] 0.034 | [5] -0.437 | [6] 0.067 | [7] -0.081 | [8] -0.238 | [9] -0.182 | [10] 0.084

(listing goes on)

TMX4 (UniProt Q9H1E5)
inactive: [1] -0.008 | [2] -0.045 | [3] -0.049 | [4] -0.049 | [5] 0.016 | [6] 0.064 | [7] 0.092 | [8] -0.022 | [9] 0.05 | [10] 0.035

TMEM11 (UniProt P17152)
inactive: [1] 0.081 | [2] -0.028 | [3] 0.019 | [4] 0.037 | [5] -0.02 | [6] -0.01 | [7] 0.027 | [8] -0.016 | [9] -0.008 | [10] 0.014

TMEM165 (UniProt Q9HC07)
inactive: [1] 0.005 | [2] -0.055 | [3] 0.056 | [4] -0.069 | [5] 0.024 | [6] 0.067 | [7] -0.051 | [8] 0.017 | [9] 0.08 | [10] 0

TMEM41B (UniProt Q5BJD5)
inactive: [1] -0.072 | [2] -0.103 | [3] 0.006 | [4] -0.02 | [5] 0.045 | [6] 0.046 | [7] -0.016 | [8] -0.036 | [9] 0.062 | [10] 0.09

TMEM97 (UniProt Q5BJF2)
inactive: [1] -0.074 | [2] -0.025 | [3] 0.02 | [4] 0.123 | [5] 0.065 | [6] 0.013 | [7] -0.062 | [8] -0.032 | [9] -0.035 | [10] 0.038

TMEM199 (UniProt Q8N511)
inactive: [1] 0.106 | [2] -0.068 | [3] 0.014 | [4] 0.055 | [5] 0.101 | [6] 0.076 | [7] -0.003 | [8] -0.086 | [9] -0.056 | [10] 0.03

TMED10 (UniProt P49755)
inactive: [1] 0 | [2] 0.031 | [3] 0.152 | [4] -0.023 | [5] 0.033 | [6] 0.004 | [7] 0.024 | [8] 0.001 | [9] 0.008 | [10] 0.037

TMEM208 (UniProt Q9BTX3)
inactive: [1] -0.021 | [2] 0.032 | [3] 0.101 | [4] 0.046 | [5] 0.13 | [6] 0.011 | [7] -0.054 | [8] -0.098 | [9] -0.002 | [10] 0.033

TMEM33 (UniProt P57088)
inactive: [1] -0.026 | [2] 0.048 | [3] 0.02 | [4] 0.01 | [5] 0.011 | [6] 0.025 | [7] 0.067 | [8] -0.013 | [9] -0.003 | [10] 0.038

TMOD3 (UniProt Q9NYL9)
inactive: [1] 0.02 | [2] 0.064 | [3] 0.024 | [4] -0.007 | [5] -0.047 | [6] 0.033 | [7] 0.009 | [8] 0.02 | [9] -0.02 | [10] -0.012

TNFAIP3 (UniProt P21580)
inactive: [1] 0.02 | [2] 0.077 | [3] 0.087 | [4] 0.041 | [5] -0.042 | [6] -0.101 | [7] -0.113 | [8] 0.004

TNFRSF10A (UniProt O00220)
inactive: [1] -0.01 | [2] -0.05 | [3] -0.023 | [4] -0.014 | [5] 0.049 | [6] -0.012 | [7] -0.026 | [8] 0.018 | [9] -0.039 | [10] -0.049

TMEM189-UBE2V1 (UniProt I3L0A0)
inactive: [1] -0.014 | [2] 0.025 | [3] 0.015 | [4] 0.019 | [5] 0.055 | [6] -0.047 | [7] 0.028 | [8] -0.009 | [9] 0.02 | [10] 0.058
